Measurements reported in PMC6363177, “R pyocin tail fiber structure reveals a receptor-binding domain with a lectin fold” (PLoS ONE, 2019).
No constants are given. Whether binding was seen depends on the method and setting. Binding seen in cells or lysates may run through a third protein. Some entries that bind do so weakly or less than the wild type.

Chains of the proteins cited; added tags and fusions are not shown.
UniProt G3XD08: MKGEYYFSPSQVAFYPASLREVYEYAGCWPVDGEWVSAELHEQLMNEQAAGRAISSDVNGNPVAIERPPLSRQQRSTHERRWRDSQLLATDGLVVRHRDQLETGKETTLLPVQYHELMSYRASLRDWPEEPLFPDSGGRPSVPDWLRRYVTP

Biological target: T1, R2-subtype N-terminally truncated tail fiber fragment (R2-NTF) (Pseudomonas aeruginosa PAO1) (UniProt G3XD71)
T1 sequence: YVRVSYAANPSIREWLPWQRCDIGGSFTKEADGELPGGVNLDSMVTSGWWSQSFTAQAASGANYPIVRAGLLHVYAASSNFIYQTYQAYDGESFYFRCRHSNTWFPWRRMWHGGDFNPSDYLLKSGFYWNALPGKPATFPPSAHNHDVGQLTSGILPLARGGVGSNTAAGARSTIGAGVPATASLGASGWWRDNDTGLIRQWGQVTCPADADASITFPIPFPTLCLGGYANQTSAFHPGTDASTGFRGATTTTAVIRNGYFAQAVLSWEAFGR
Assay: pull-down; co-expression in E. coli BL21 (DE3); lysate on HisTrap FF Ni-IMAC column; wash 50mM Tris pH 8.0, 150mM NaCl, 10mM imidazole, 5% glycerol; elution with 300mM imidazole; chaperone co-purifies with the his-tagged NTF

Q: “R2-subtype tail fiber chaperone PA0621 (from UniProt G3XD08 1-152)” was tested. Which binding did it give?
A: binds
